According to patent publication US9707126B2, “Systems and methods for corneal cross-linking with pulsed light” (Avedro, Inc., priority 2009, dated 2017):

Test system: porcine corneal flap
Test: Dissolved oxygen below corneal flap saturated with Riboflavin during UVA irradiation (O2 sensor)
Experimental: FIG. 2A illustrates a graph of depletion and gradual replenishment curve of dissolved oxygen below a 100 μm thick porcine corneal flap, saturated with 0.1% Riboflavin during 3 mW/cm^2 UVA irradiation at 25° C. The oxygen concentration (mg/L) fell to zero at about 15 seconds and gradually started to increase after approximately 10 minutes, getting back to approximately one-tenth its starting value after 30 minutes.
FIG. 2B illustrates a graph of oxygen recovery under a 100 μm thick corneal flap. The corneal flap was saturated with 0.1% Riboflavin during 30 mW/cm^2 UVA irradiation. The irradiation was pulsed at a 3 second on/3 seconds off cycle. Riboflavin drops were added to the cornea every 90 seconds. In this example, it took about 3 minutes for the oxygen concentration to gradually start increasing and about 6 minutes for the oxygen concentration to increase to 0.1 mg/L.
In a corroborating experiment, porcine eyes were de-epithelialized and placed in the 0.1% Riboflavin solution for 20 minutes. Eyes were removed from solution and physiological IOP was applied. A flap was cut using a femto second laser and an O2 sensor was placed under the flap. UVA illumination was administered as indicated and Riboflavin drops were applied every 90 seconds for the duration of the dose delivered. After cross-linking the flap using the pulsed light dosing, the flap was removed and tested mechanically as described above.

[1] = 100 μm flap, 0.1% Riboflavin, 30 mW/cm^2 UVA pulsed 3 seconds on/3 seconds off, drops every 90 seconds
[2] = 100 μm porcine corneal flap, 0.1% Riboflavin, 3 mW/cm^2 UVA CW, 25° C.

Cc1cc2nc3c(=O)[nH]c(=O)nc-3n(C[C@H](O)[C@H](O)[C@H](O)CO)c2cc1C [Riboflavin]
time for the oxygen concentration to increase to 0.1 mg/L [1]: about 6 minutes | time for the oxygen concentration to start increasing [1]: about 3 minutes | time after which oxygen concentration started to increase [2]: approximately 10 minutes | time at which oxygen concentration fell to zero [2]: about 15 seconds | oxygen concentration relative to its starting value (after 30 minutes, 0.1% Riboflavin, 3 mW/cm^2 UVA CW, 25° C.): approximately one-tenth | time within which oxygen concentration in the cornea depletes (irradiance of 3 mW/cm^2): 10 to 15 s | time within which oxygen concentration in the cornea depletes (irradiance of 30 mW/cm^2): 3 to 5 s
